# Measurements: patent US6399654B1, “Biflavanoids and derivatives thereof as antiviral agents” (priority 1995, dated 2002)
# At least one structure is not confirmed: it was looked up by name or label, or the drawing left a doubt.
# System: HIV-1 (strain LAV-1)
# Format: cell-based
smiles,measurement,value
"O=c1cc(-c2ccc(Oc3c(O)cc4oc(-c5ccc(O)cc5)cc(=O)c4c3O)cc2)oc2cc(O)cc(O)c12 [Hinokiflavone (4), hinokiflavone]",anti-HIV-1 activity in PBM cells (in words),good activity
